Measurements published in article PMC9457086.

Chains of the proteins cited; added tags and fusions are not shown.
UniProt P11142: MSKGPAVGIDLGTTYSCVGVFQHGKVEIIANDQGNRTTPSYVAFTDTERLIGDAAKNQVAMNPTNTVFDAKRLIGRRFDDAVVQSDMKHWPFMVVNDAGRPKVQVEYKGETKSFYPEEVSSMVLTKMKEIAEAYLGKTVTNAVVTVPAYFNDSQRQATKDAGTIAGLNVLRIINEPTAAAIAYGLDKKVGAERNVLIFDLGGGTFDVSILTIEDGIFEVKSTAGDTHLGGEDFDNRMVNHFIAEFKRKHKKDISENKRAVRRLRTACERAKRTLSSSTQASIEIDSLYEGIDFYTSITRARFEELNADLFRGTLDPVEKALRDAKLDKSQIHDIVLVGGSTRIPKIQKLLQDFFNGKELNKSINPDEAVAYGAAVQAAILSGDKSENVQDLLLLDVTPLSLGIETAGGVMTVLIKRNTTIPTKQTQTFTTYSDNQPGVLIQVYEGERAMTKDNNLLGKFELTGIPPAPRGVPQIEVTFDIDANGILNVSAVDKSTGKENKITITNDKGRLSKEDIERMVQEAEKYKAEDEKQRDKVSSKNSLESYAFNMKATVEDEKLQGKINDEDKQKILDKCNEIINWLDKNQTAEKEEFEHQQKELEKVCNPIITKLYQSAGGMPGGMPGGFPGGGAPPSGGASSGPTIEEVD
UniProt P36873: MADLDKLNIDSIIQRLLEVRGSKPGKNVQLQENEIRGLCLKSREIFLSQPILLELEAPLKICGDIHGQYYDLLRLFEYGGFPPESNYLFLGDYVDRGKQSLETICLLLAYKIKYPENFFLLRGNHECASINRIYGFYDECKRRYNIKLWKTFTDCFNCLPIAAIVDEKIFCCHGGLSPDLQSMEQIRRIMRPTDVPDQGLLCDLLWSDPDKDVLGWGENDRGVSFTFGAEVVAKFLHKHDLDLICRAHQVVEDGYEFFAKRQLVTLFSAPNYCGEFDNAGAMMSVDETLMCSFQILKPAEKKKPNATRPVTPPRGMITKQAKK
UniProt P35580: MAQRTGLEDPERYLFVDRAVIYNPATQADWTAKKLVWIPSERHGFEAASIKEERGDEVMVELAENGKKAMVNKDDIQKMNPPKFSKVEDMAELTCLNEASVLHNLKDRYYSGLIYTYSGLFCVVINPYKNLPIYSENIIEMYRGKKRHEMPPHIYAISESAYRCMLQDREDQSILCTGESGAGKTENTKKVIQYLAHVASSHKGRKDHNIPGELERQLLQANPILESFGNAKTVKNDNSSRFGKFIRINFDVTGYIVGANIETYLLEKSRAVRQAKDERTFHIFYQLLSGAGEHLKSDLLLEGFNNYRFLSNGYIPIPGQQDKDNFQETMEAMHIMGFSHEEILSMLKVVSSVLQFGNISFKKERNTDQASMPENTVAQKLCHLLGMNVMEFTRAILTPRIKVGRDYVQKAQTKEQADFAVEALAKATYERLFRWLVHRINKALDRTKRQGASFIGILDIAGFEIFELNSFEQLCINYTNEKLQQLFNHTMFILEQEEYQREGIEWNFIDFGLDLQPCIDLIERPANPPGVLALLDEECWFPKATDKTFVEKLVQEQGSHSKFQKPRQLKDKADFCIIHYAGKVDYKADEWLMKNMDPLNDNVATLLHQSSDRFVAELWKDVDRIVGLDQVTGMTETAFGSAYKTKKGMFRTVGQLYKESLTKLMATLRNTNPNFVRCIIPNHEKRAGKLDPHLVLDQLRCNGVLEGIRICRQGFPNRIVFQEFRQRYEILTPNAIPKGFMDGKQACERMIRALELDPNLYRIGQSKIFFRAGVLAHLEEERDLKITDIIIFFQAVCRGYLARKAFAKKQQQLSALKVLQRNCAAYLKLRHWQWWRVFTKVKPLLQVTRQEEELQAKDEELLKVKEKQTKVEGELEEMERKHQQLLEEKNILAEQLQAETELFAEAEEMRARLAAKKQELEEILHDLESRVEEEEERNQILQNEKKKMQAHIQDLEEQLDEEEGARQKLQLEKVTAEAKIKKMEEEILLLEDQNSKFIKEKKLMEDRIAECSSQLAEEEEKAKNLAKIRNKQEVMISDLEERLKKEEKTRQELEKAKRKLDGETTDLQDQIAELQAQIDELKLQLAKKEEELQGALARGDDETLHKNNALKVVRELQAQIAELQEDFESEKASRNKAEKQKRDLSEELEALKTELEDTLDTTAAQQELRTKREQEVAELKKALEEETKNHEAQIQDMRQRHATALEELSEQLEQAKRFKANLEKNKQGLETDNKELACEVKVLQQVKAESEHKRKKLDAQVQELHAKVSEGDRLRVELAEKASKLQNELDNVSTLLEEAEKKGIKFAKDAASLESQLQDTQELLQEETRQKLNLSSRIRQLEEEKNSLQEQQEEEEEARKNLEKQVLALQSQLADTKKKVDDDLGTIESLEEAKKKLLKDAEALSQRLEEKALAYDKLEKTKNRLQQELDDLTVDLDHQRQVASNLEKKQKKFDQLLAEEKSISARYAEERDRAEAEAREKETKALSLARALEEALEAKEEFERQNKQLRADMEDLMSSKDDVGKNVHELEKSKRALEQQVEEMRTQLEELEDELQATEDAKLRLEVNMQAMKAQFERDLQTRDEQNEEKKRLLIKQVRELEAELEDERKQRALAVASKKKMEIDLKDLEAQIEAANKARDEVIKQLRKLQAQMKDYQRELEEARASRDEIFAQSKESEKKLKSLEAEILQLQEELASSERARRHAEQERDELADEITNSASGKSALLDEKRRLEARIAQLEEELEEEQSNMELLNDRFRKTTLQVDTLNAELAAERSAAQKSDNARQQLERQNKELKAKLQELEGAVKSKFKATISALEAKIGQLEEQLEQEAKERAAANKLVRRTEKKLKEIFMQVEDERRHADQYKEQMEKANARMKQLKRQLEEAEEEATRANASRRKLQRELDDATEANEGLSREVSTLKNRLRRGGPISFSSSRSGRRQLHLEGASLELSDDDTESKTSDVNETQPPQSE

Molecular target: T1, phosphatase and actin regulator-1 (PHACTR1), overexpressed from adenovirus Ad-PHACTR1 (human) (UniProt Q9C0D0)
T1 sequence: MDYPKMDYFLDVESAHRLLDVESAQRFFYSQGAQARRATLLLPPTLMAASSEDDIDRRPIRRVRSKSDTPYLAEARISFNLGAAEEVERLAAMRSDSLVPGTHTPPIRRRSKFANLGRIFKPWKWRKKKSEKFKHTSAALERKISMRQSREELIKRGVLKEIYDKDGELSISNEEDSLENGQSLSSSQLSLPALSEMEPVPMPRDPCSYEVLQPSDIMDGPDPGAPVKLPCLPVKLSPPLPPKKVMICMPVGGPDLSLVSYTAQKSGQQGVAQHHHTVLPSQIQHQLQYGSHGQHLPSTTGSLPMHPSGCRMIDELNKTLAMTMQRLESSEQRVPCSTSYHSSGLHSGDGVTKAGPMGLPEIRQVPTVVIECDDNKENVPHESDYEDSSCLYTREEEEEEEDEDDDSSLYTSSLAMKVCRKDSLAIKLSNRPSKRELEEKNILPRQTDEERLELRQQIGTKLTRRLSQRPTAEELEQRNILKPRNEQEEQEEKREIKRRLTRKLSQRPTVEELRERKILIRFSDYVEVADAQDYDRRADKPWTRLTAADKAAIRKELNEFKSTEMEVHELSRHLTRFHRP
Assay: affinity purification with mass spectrometry; HUVECs treated with control adenovirus or Ad-PHACTR1 24 h, then TNF-α 6 h; lysate in IP lysis buffer (150 mM NaCl, 0.5% Triton X-100, 0.5% NP-40, pH 7.5) on Anti-flag M2 affinity gel overnight at 4°C; 10 washes; gel slices to mass spectrometry

binding, binds:
heat shock protein family A member 8 (HSPA8) (from UniProt P11142 1-646)
protein phosphatase 1 catalytic subunit gamma (PPP1CC) (from UniProt P36873 1-323)
myosin heavy chain 10 (MYH10) (from UniProt P35580 1-1976)

These are yes or no findings as the source states them, for the method shown. Binding seen in cells or lysates may run through a third protein. These calls come from enrichment with a bait or labelling near it, and not all partners need be listed. Sequences can lack the tags named with a protein.
